In article PMC5928880 (Theranostics, 2018):

Legend:
Format in all cases: cell-based, human
Kasumi-1 cells = assay: Antiproliferation assay; details: read-out: Antiproliferative activity EC50, Kasumi-1
Jurkat leukemia cells = assay: Antiproliferation assay; details: read-out: Antiproliferative activity EC50, Jurkat
SKNO-1 cells = assay: Antiproliferation assay; details: read-out: Antiproliferative activity EC50, SKNO-1
NB4 cells = assay: Antiproliferation assay; details: read-out: Antiproliferative activity EC50, NB4
MV4-11 cells = assay: Antiproliferation assay; details: read-out: Antiproliferative activity EC50, MV4-11
[1] = test system: MCF-7 (breast cancer) cells; assay: Antiproliferation assay; details: read-out: Antiproliferative activity EC50, MCF-7
[2] = test system: normal fibroblast WI-38 cells; assay: Antiproliferation assay; details: read-out: Antiproliferative activity EC50, WI-38
[3] = test system: Kasumi-1 and SKNO-1 cells; assay: Antiproliferation assay, R-E leukemia cells; details: less active than Bet

EC50 (Jurkat leukemia cells): > 50 µM
EC50 (SKNO-1 cells): 120 nM
EC50 (MV4-11 cells): > 50 µM
EC50 [1]: > 50 µM
Compound: CC(=O)OCC(=O)[C@@]1(O)[C@@H](C)C[C@H]2[C@@H]3CCC4=CC(=O)C=C[C@]4(C)[C@@]3(F)[C@@H](O)C[C@@]21C [Bet-Ac, betamethasone-21-acetate]
EC50 (Kasumi-1 cells): 50 nM
EC50 (NB4 cells): > 50 µM
EC50 [2]: > 50 µM
Activity compared to Bet (fold less) [3]: ~ 2 fold
